# In the supplement of paper PMC8256030:
# This is one part of the list. Single values are uncertain here, since repeats match poorly.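 HEK293T cells were given each compound shortly before transfection with a reporter in which red mCherry is followed by the SARS-CoV-2 frameshift element and then GFP in the −1 frame, so GFP appears only after frameshifting.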
# System: SARS-CoV-2 -1 PRF reporter mCherry-FSE-GFP(-1)
# Assay: percent effect, decrease of GFP/mCherry ratio (-1 PRF reporter) relative to controls; higher = stronger frameshift inhibition
# Conditions: 10 µM; 24 h; HEK293T
row,SMILES,percent effect [%]
1,O=c1[nH]c2cc(C(F)(F)F)c(N3CCOCC3)cc2n(CP(=O)(O)O)c1=O [fanapanel],-0.49
2,CC[N+](C)(C)c1cccc(O)c1 [edrophonium chloride],3.56
3,Cc1ncsc1CCCCl [cloprothiazole],-1.14
4,NS(=O)(=O)c1cc(C(=O)NN2C[C@@H]3[C@H]4CC[C@H](C4)[C@@H]3C2)ccc1Cl [tripamide],0.129
5,CCCCCCOC(=O)NC(=N)c1ccc(NCc2nc3cc(C(=O)N(CCC(=O)OCC)c4ccccn4)ccc3n2C)cc1,-0.458
6,CC1=C(C)C(=O)C(CCCCC#CCCCC#CCO)=C(C)C1=O [docebenone],-0.418
7,CN1CCCC(n2nc(Cc3ccc(Cl)cc3)c3ccccc3c2=O)CC1 (centres undefined),-4.26
8,O=C(O)CCNC(=O)c1ccc(/N=N/c2ccc(O)c(C(=O)O)c2)cc1 [balsalazide],-5.07
9,C[N+](C)(C)CCOC(=O)CCC(=O)OCC[N+](C)(C)C [Succinylcholine],-4.02
10,COc1ccc(-n2c(C)c[nH]c2=O)cc1 [metazamide],-6.69
11,NCC1CC(=O)N(Cc2ccccc2)C1 (centres undefined) [nebracetam],-5.3
12,CC(=O)N[C@H](Cc1ccc2ccccc2c1)C(=O)N[C@H](Cc1ccc(Cl)cc1)C(=O)N[C@H](Cc1cccnc1)C(=O)N[C@@H](CO)C(=O)N(C)[C@@H](Cc1ccc(O)cc1)C(=O)N[C@H](CC(N)=O)C(=O)N[C@@H](CC(C)C)C(=O)N[C@@H](CCCCNC(C)C)C(=O)N1CCC[C@H]1C(=O)N[C@H](C)C(N)=O [abarelix],-3.22
13,CC(C)c1cc(C(C)C)c(-c2csc(N(CCN(C)C)Cc3cccnc3)n2)c(C(C)C)c1 [foropafant],-8.85
14,CC(C)(C)NCC(O)COc1cc(Cl)ccc1Cl (centres undefined) [cloranolol],-3.52
15,COC(=O)C1=C(C)NC(C)=C(C(=O)OC/C=C/c2ccccc2)C1c1cccc([N+](=O)[O-])c1 (centres undefined) [pranidipine],-0.297
16,CC[C@]12CCCN3CCc4c(n(c5ccccc45)[C@@](O)(C(=O)OC)C1)[C@@H]32 [vincamine],4.12
17,CC1=C(CC(=O)O)c2cc(F)ccc2/C1=C\c1ccc([S+](C)[O-])cc1 (centres undefined) [Sulindac],1.91
18,C[C@@H]1C(=O)NC2=Nc3cccc(Cl)c3CN21 [quazinone],-3.11
19,CCc1cn([C@H]2C[C@H](O)[C@@H](CO)O2)c(=O)[nH]c1=O,-2.63
20,O=C(Nc1c(Cl)cncc1Cl)c1ccc(OC(F)F)c(OCC2CC2)c1 [roflumilast],-2.15
21,COc1c(-c2ccc3cc(NS(C)(=O)=O)ccc3c2)cc(-n2ccc(=O)[nH]c2=O)cc1C(C)(C)C [Dasabuvir],0.342
22,Cc1cc(C(C)(C)CC(C)(C)C)ccc1OCCOCC[N+](C)(C)Cc1ccccc1 [methylbenzethonium chloride],-9.07
23,CCCCCCCCCCOc1cc2c(O)c(C(=O)OCC)cnc2cc1OCC [decoquinate],-5.57
24,CC(C)Cc1ccc(CC(=O)O)cc1 [ibufenac],-0.849
25,C[C@]12CC[C@H]3[C@@H](CCC4=CC(=O)CC[C@@]43C)[C@@H]1CC[C@@H]2C(=O)CO [desoxycortone],-2.53
26,N=C(N)N/N=C/c1c(Cl)cccc1Cl [guanabenz],-6.78
27,C[C@]12CC[C@@H]3c4ccc(O)cc4C[C@@H](CCCCCCCCC[S+]([O-])CCCC(F)(F)C(F)(F)F)[C@H]3[C@@H]1CC[C@@H]2O (some centres undefined),3.02
28,CC1=C(C(=O)OC(C)C)C(c2cccc([N+](=O)[O-])c2)C(C(=O)OC2CN(C(c3ccccc3)c3ccccc3)C2)=C(N)N1 (centres undefined) [azelnidipine],-1.38
29,O=C1c2c(O)cccc2C(C2OC(CO)C(O)C(O)C2O)c2cc(CO)cc(O)c21 (centres undefined),0.705

# 2 neighbouring entries already listed, quoted:
row,SMILES,percent effect [%]
24,CC(C)Cc1ccc(CC(=O)O)cc1 [ibufenac],-0.849
25,C[C@]12CC[C@H]3[C@@H](CCC4=CC(=O)CC[C@@]43C)[C@@H]1CC[C@@H]2C(=O)CO [desoxycortone],-2.53
